No constants are given. Whether binding was seen depends on the method and setting. Some results given as binding are weak or reduced against the parent protein; the word gives no strength.
Biological target: T1, cell-surface GPC1 on GPC1-expressing tumor cells (2B9 KLM, H8, T3M4) (UniProt P35052)
T1 sequence (looked up): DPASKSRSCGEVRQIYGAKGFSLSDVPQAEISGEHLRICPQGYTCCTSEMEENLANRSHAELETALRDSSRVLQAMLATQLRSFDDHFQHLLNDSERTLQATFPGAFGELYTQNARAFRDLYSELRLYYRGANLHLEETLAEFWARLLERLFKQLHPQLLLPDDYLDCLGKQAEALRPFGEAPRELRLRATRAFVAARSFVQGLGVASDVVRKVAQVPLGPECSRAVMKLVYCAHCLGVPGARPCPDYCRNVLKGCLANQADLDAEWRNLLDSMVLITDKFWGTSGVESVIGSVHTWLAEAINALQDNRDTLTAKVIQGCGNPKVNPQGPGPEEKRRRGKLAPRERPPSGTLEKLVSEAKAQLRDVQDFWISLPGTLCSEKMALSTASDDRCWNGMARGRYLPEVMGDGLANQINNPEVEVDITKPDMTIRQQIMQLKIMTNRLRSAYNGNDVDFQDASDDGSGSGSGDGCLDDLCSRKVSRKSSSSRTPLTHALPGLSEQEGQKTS
Assay: flow cytometry on cells, D4 at 5 ug/ml

B1: camel single-domain antibody D4 (VHH)
VHH: QVQLVESGGGLVQPGGSLRLSCVASGYSYSIGYMAWFRQAPGKERAWVASRYTGDGGAVFDDAVKGRFTTSQESAGNTFDLQMDSLKPEDTAMYYCAAKGPGFGRWEYWGRGTQVTVSS
notes: also called D4 antibody; VHH antibody D4
  binding: binds

From patent US20220098323A1 (US Dept. of Health and Human Services, published 2022)
